Results as given in paper PMC6052104.
These are yes or no findings as the source states them, for the method shown. Binding seen in cells or lysates may run through a third protein. Some entries that bind do so weakly or less than the wild type.

Sequences of proteins named here, by UniProt entry; tags and fusion partners are left off. A change or cut given only in a name is not applied to a line headed by its entry.
UniProt Q14676: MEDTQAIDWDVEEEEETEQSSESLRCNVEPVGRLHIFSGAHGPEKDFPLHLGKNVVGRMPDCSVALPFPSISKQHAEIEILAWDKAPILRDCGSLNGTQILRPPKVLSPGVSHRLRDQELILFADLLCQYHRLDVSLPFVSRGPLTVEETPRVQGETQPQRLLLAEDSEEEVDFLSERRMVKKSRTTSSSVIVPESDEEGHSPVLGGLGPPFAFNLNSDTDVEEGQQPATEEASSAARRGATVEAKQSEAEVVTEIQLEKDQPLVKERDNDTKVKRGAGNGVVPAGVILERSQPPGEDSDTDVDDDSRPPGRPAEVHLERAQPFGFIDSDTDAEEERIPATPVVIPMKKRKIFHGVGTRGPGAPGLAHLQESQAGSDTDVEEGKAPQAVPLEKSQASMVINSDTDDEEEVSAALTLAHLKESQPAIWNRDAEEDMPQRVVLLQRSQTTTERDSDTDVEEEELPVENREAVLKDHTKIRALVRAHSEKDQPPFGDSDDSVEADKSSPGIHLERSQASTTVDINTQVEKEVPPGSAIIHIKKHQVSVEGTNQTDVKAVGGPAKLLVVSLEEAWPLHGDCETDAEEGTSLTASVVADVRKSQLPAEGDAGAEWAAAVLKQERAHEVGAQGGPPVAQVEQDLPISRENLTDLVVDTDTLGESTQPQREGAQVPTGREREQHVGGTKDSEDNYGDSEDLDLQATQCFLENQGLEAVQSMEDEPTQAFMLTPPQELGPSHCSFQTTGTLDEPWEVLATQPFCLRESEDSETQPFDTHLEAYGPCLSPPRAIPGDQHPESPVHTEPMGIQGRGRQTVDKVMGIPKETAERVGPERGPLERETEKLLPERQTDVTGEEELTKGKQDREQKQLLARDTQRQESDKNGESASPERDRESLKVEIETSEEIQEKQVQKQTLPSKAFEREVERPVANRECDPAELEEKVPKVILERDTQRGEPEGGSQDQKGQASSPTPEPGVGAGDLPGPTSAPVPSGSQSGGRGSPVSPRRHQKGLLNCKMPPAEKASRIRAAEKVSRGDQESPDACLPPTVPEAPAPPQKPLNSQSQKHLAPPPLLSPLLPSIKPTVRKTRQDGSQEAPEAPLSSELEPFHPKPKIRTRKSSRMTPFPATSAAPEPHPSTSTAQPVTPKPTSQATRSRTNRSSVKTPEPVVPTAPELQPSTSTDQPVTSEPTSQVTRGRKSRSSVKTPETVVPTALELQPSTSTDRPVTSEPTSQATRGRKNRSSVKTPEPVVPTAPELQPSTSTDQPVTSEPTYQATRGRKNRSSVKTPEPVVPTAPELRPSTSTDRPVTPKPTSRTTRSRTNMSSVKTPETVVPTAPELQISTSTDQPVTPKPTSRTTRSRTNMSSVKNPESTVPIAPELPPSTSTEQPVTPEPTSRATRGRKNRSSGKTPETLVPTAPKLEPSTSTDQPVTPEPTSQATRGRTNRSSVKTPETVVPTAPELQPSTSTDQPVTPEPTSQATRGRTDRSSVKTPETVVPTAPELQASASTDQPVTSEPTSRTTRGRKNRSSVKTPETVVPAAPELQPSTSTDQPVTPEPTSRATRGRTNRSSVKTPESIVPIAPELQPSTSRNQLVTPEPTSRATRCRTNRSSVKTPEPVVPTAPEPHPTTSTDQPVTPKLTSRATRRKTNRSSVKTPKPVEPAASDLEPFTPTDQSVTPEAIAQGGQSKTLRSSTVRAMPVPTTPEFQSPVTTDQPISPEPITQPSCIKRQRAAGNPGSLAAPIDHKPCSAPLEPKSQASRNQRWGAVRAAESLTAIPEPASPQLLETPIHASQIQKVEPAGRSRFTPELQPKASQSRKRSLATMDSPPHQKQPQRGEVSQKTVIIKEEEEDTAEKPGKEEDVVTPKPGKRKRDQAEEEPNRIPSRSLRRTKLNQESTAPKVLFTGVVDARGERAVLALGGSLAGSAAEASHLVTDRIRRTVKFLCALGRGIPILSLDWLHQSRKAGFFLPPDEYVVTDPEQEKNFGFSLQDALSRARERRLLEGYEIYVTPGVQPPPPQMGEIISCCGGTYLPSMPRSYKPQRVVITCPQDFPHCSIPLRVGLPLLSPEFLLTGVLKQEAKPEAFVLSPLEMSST
UniProt Q9H9B1: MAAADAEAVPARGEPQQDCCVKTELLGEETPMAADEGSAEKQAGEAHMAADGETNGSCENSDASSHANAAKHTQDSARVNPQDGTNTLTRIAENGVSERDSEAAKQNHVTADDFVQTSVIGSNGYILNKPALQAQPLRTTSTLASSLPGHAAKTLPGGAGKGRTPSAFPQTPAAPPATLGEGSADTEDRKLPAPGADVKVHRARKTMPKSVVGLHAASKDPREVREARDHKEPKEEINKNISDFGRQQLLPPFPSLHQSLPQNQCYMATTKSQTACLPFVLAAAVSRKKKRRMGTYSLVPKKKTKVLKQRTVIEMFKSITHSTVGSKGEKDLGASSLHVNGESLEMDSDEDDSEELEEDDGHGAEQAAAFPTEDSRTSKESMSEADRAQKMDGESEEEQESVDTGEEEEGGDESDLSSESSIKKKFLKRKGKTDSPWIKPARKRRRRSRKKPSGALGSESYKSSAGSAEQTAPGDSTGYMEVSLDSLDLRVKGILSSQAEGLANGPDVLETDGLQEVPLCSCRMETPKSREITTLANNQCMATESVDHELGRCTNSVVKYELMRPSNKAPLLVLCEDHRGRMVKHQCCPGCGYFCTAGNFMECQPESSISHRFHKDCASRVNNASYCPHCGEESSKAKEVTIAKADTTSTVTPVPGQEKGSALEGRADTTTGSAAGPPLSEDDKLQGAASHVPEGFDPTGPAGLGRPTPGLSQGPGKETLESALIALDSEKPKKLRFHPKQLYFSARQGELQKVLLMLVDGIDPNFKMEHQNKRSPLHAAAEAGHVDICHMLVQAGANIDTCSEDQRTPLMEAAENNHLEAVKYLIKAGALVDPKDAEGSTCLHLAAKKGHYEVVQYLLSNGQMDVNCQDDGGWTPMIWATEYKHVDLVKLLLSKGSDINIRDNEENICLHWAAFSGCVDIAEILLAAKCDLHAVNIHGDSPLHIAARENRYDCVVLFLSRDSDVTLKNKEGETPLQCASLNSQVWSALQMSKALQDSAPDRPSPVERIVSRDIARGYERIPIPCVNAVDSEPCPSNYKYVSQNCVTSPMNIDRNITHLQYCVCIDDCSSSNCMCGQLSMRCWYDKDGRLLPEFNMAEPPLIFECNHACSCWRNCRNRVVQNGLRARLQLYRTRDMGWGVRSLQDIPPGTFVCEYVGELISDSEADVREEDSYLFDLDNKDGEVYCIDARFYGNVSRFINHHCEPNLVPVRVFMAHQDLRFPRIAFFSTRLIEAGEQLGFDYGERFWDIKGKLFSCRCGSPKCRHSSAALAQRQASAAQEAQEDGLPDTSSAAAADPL
UniProt Q96KQ7: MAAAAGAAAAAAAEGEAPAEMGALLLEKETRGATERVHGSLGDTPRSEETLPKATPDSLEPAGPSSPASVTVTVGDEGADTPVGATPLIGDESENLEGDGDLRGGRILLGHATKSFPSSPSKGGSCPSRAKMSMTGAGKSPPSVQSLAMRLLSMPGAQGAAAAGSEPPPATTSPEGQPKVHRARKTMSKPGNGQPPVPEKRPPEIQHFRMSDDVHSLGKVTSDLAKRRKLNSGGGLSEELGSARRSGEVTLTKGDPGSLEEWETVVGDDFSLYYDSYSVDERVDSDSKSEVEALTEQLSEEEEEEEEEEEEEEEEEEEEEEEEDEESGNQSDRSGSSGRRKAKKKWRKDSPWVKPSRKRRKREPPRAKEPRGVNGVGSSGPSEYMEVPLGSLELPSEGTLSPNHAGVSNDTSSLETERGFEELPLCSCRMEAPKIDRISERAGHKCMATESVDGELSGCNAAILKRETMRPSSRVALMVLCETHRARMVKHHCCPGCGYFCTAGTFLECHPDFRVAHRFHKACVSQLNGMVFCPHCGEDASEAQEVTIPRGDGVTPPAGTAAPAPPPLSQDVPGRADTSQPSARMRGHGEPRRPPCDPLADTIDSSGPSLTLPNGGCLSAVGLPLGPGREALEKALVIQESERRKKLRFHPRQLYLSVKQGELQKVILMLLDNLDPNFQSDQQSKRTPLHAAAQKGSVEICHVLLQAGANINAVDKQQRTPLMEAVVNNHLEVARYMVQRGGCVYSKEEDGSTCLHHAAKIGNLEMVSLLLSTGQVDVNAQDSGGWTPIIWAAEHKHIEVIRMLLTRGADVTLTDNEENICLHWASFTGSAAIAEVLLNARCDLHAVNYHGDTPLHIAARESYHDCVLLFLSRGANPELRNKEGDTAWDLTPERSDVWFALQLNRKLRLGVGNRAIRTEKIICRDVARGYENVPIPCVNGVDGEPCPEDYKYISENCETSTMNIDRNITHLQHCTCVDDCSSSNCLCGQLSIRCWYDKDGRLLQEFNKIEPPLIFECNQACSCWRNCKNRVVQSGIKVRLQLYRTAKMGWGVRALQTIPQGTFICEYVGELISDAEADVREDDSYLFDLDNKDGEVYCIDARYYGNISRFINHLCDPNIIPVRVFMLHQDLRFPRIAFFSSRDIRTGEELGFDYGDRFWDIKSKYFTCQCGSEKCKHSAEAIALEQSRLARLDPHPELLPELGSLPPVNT
UniProt O60934: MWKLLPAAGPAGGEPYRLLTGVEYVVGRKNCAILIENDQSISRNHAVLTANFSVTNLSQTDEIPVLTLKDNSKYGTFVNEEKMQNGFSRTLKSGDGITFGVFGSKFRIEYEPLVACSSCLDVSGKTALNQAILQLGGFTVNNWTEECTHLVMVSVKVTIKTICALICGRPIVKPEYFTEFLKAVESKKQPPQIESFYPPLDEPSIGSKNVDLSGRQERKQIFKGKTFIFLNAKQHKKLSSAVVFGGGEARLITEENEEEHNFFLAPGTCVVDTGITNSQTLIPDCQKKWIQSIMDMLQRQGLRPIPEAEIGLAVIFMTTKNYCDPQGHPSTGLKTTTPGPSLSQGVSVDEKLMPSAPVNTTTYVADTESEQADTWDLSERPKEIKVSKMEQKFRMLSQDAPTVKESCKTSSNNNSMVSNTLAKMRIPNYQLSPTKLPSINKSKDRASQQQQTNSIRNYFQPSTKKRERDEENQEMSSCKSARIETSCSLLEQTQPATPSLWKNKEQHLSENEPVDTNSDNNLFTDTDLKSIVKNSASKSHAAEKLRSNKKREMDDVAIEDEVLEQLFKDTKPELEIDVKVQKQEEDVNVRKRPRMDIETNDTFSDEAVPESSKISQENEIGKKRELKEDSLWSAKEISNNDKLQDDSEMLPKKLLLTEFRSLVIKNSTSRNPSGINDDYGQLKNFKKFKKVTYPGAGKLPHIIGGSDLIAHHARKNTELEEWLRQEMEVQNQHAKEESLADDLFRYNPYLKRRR

Assays:
[1] = target: mediator of DNA damage checkpoint 1 (MDC1), endogenous (human (endogenous in U2OS and MCF7)) (UniProt Q14676); test: co-IP; untransfected U2OS cells, endogenous proteins, exposed or not to NCS (500 ng/ml, 30 min); nuclear chromatin-associated complexes, Dynabeads Protein G with antibody 4 h at 4 C, washed with TNE buffer; immunoblot
[2] = target: mediator of DNA damage checkpoint 1 (MDC1), endogenous (human (endogenous in U2OS and MCF7)) (UniProt Q14676); test: co-IP; U2OS and MCF7 cells transfected with FLAG-EHMT1 or FLAG-EHMT2, exposed or not to NCS (500 ng/ml, 30 min), in U2OS also with 10 uM ATM inhibitor KU-55933 for 100 min before NCS; nuclear chromatin-associated complexes (nuclear complex co-IP kit), Dynabeads Protein G with antibody 4 h at 4 C, washed 5 times with TNE buffer (0.1% NP40, 50 mM Tris-HCl pH 7.6, 150 mM NaCl, 5 mM EDTA); immunoblot
[3] = target: mediator of DNA damage checkpoint 1 (MDC1), endogenous (human (endogenous in U2OS and MCF7)) (UniProt Q14676); test: proximity ligation; in situ PLA (Duolink) in fixed U2OS and MCF7 cells transfected with FLAG-EHMT1 or FLAG-EHMT2; MDC1 antibody combined with Flag antibody; untreated or 1 h after NCS (50 ng/ml, 15 min) or Zeocin (100 ug/ml, 1 h)
[4] = target: HA-tagged MDC1 K45A (unmethylated mutant) (human) (UniProt Q14676); test: co-IP; U2OS cells transfected with HA-tagged MDC1 (WT or K45A); nuclear chromatin-associated complexes, Dynabeads Protein G with antibody 4 h at 4 C, washed with TNE buffer; blots for ATM, NBS1 and MRE11
[5] = target: HA-tagged MDC1 wild type (full length) (human) (UniProt Q14676); test: as above

| Substance | binding [1] | binding [2] | binding [3] | also measured |
| --- | --- | --- | --- | --- |
| EHMT1, endogenous (from UniProt Q9H9B1 1-1298) (enzyme) | binds | – | – | – |
| EHMT2, endogenous (from UniProt Q96KQ7 1-1210) (enzyme) | binds weakly | – | – | – |
| FLAG-tagged EHMT1 (euchromatic histone-lysine N-methyltransferase 1) (from UniProt Q9H9B1 1-1298) (enzyme) | – | binds | binds | – |
| FLAG-tagged EHMT2 (euchromatic histone-lysine N-methyltransferase 2) (from UniProt Q96KQ7 1-1210) (enzyme) | – | binds weakly | binds | – |
| NBS1, endogenous (from UniProt O60934 1-754) | – | – | – | binding [4]: binds; binding [5]: binds |
